For test [1], the target named is T1, Cdc6 (co-IP in vivo of Supplementary Fig. 1g) (human) (UniProt Q99741).
T1 sequence: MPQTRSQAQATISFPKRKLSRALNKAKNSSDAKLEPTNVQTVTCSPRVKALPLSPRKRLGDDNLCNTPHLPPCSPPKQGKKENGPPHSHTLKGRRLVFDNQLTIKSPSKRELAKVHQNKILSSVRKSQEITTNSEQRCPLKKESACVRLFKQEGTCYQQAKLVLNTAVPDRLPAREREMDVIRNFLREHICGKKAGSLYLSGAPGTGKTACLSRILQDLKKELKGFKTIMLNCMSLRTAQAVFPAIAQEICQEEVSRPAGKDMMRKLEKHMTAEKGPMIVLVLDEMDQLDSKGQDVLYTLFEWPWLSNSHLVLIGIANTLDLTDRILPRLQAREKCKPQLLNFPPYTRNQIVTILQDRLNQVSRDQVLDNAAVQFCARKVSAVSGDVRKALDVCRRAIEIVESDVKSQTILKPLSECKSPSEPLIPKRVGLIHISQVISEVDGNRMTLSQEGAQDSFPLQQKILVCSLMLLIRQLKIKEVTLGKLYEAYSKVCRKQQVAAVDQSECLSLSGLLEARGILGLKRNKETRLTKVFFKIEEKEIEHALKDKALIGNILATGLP
Briefly: co-IP; in vivo; antibodies and constructs not told in the text (Supplementary Fig. 1g).

Test [2] concerns the target T2, GST-tagged Cdc6 (human) (UniProt Q99741).
T2 sequence: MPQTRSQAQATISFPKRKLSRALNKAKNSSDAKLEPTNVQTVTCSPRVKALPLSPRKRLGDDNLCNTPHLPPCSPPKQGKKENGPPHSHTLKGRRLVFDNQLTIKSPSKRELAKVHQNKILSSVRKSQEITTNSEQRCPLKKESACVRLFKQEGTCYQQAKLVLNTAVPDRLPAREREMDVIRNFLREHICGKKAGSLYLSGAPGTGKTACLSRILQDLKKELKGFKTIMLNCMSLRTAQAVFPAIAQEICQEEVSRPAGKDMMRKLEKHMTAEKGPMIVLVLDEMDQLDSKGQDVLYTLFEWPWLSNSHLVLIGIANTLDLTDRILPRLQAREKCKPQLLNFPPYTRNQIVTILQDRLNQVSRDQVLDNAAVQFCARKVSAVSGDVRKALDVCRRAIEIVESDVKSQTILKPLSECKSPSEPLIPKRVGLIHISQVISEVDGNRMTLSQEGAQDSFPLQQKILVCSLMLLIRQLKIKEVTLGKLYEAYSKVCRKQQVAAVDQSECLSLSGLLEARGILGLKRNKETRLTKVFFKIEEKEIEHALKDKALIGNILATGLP
Kind of test: pull-down; Sepharose beads coupled with purified GST-Cdc6 incubated with in vitro transcribed and translated HA-cyclin A; western blot with HA antibody; only the target purified.

Test [3] concerns the target GFP-tagged cyclin A WT (human). Briefly: co-IP; co-transfected HEK293 cells, total cell extract, IP with GFP antibody on protein A Sepharose, 20 mM Tris, 125 mM NaCl, 0.5% NP-40, pH 7.5, 2 h at 4 °C; western blot with Myc and GFP antibodies; in Fig. 4d cells released into S phase.

No constants are given. Whether binding was seen depends on the method and setting. In cells and extracts the contact can be indirect. A result given as binding can be weak or reduced; the word gives no strength. For part of these data: Tags and fused reporters may be left off the sequences shown.

With “cyclin A (co-IP in vivo of Supplementary Fig. 1g) (human)”, the binding entry in test [1] was “binds”.

Consider HA-tagged cyclin A (human), for which, in test [2], the binding result was “binds”.

B1: His-tagged Cdc6 (purified) (natural protein, human, UniProt Q99741 1-560, looked up)
chain: MPQTRSQAQATISFPKRKLSRALNKAKNSSDAKLEPTNVQTVTCSPRVKALPLSPRKRLGDDNLCNTPHLPPCSPPKQGKKENGPPHSHTLKGRRLVFDNQLTIKSPSKRELAKVHQNKILSSVRKSQEITTNSEQRCPLKKESACVRLFKQEGTCYQQAKLVLNTAVPDRLPAREREMDVIRNFLREHICGKKAGSLYLSGAPGTGKTACLSRILQDLKKELKGFKTIMLNCMSLRTAQAVFPAIAQEICQEEVSRPAGKDMMRKLEKHMTAEKGPMIVLVLDEMDQLDSKGQDVLYTLFEWPWLSNSHLVLIGIANTLDLTDRILPRLQAREKCKPQLLNFPPYTRNQIVTILQDRLNQVSRDQVLDNAAVQFCARKVSAVSGDVRKALDVCRRAIEIVESDVKSQTILKPLSECKSPSEPLIPKRVGLIHISQVISEVDGNRMTLSQEGAQDSFPLQQKILVCSLMLLIRQLKIKEVTLGKLYEAYSKVCRKQQVAAVDQSECLSLSGLLEARGILGLKRNKETRLTKVFFKIEEKEIEHALKDKALIGNILATGLP
notes: human Cdc6; also called His-Cdc6; source: E. coli BL21, purified (His60 Ni Superflow resin)
Consider B1, for which, in test [3], the binding result is “binds”.

The values above are taken from paper PMC5414174, “DNA replication licensing factor Cdc6 and Plk4 kinase antagonistically regulate centrosome duplication via Sas-6” (Nature Communications, 2017).
